Data taken from the supplement of paper PMC10849652.
The other results are listed elsewhere or left out.

Amino acid sequences for entries named in this document (tags omitted). A change or cut given only in a name is not applied to a line headed by its entry.
UniProt P29692: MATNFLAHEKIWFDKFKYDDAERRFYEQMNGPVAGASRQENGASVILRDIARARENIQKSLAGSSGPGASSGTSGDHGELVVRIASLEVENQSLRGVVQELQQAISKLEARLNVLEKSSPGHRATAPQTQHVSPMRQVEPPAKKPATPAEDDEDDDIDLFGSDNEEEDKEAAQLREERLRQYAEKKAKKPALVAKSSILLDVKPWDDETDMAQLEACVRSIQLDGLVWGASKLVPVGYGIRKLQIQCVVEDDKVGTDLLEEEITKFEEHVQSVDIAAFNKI
UniProt P60981: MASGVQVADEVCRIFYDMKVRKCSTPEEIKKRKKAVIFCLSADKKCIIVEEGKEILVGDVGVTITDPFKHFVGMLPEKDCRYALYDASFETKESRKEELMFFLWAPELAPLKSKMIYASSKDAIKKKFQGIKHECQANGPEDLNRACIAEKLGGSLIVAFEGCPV
UniProt P26641, whole entry, looked up: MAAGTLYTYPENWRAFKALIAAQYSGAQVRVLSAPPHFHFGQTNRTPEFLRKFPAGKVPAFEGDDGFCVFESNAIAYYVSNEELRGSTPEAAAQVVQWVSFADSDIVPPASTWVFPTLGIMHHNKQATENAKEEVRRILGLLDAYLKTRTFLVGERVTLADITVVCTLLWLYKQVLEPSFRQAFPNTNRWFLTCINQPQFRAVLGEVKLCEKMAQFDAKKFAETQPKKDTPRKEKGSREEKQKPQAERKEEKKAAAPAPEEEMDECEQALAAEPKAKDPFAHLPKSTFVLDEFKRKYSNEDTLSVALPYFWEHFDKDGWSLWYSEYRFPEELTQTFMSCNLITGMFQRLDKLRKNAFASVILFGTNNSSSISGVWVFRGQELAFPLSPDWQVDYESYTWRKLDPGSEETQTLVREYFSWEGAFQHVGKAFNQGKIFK
UniProt Q9H8V3: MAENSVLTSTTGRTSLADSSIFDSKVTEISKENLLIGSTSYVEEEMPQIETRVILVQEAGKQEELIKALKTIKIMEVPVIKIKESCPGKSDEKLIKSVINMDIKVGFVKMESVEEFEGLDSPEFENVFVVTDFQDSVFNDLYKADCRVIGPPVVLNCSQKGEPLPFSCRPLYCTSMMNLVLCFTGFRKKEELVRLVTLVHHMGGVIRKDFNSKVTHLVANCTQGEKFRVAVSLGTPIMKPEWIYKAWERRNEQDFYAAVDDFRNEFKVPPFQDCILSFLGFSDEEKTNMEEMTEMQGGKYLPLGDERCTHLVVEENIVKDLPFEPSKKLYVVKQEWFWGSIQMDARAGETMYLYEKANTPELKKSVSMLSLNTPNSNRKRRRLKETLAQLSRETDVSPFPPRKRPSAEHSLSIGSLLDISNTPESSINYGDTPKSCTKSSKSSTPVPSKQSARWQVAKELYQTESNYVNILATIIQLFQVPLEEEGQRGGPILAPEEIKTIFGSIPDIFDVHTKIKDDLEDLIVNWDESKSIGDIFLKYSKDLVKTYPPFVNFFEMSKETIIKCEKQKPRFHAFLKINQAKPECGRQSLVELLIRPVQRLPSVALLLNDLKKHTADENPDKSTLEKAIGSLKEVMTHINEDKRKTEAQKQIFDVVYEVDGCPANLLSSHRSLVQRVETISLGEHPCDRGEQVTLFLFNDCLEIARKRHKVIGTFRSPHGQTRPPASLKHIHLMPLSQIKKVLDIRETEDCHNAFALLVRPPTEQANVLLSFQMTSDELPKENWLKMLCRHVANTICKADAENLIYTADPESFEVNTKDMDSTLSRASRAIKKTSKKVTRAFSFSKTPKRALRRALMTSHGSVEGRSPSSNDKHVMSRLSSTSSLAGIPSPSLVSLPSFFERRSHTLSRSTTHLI
UniProt Q8NDI1: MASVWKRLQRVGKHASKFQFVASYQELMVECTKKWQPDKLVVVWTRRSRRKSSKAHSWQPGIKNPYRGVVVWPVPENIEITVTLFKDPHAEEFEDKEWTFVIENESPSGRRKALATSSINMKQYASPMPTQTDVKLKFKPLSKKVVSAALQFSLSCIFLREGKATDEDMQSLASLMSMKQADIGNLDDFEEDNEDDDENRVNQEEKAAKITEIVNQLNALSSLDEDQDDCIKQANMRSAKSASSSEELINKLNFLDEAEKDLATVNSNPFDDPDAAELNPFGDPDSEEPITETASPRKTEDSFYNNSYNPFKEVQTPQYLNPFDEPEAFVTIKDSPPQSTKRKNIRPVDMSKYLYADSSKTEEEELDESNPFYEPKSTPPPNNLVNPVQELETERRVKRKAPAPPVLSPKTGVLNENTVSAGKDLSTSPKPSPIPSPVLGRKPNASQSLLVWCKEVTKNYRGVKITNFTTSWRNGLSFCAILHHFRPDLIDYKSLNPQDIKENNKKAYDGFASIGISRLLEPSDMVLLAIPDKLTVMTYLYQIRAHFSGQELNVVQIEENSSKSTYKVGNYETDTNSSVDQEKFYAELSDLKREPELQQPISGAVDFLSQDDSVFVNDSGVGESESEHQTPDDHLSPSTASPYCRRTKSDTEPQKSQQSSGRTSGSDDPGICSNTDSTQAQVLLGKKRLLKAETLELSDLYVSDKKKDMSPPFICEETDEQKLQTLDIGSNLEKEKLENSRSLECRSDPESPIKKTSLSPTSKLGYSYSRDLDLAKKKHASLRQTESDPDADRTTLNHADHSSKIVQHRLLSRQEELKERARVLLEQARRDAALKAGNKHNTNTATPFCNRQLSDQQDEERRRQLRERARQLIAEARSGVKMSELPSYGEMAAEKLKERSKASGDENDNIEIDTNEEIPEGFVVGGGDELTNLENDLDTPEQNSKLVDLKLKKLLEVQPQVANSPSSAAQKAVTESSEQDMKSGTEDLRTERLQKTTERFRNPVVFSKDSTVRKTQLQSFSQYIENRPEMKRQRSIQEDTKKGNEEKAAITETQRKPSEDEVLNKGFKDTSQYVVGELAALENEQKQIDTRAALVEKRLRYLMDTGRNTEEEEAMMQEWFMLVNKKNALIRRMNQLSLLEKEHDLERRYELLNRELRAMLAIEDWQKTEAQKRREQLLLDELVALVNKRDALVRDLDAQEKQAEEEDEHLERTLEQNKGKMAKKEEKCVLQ
UniProt P51452: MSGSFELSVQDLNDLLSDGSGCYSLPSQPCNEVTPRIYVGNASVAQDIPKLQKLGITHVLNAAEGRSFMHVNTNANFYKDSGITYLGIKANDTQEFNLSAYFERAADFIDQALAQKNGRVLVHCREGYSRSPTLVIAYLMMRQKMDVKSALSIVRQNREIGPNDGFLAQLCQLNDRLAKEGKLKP
UniProt Q9H2P9: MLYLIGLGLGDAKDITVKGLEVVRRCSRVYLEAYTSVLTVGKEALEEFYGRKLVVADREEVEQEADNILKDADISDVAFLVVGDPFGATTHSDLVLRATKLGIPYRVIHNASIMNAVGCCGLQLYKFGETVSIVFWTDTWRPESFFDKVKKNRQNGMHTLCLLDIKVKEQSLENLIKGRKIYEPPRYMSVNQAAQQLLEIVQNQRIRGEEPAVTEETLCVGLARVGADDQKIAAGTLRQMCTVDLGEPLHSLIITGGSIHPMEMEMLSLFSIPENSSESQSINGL
UniProt P33316: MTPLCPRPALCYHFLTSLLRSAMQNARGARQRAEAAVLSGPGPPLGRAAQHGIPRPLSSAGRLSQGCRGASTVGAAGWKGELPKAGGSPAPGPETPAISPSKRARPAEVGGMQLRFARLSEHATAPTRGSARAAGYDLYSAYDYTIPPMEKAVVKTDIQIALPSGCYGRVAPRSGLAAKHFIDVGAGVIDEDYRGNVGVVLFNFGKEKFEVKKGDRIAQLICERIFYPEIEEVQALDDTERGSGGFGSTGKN
UniProt P24534: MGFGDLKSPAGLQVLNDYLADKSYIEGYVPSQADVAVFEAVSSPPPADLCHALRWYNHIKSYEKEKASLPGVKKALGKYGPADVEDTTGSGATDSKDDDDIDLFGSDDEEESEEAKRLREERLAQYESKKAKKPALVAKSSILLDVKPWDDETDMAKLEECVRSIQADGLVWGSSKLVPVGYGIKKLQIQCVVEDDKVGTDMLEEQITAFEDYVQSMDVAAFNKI
UniProt Q96FJ2, whole entry, looked up: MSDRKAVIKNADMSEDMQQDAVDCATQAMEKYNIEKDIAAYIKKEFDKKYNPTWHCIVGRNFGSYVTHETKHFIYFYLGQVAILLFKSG
UniProt Q3B7T1: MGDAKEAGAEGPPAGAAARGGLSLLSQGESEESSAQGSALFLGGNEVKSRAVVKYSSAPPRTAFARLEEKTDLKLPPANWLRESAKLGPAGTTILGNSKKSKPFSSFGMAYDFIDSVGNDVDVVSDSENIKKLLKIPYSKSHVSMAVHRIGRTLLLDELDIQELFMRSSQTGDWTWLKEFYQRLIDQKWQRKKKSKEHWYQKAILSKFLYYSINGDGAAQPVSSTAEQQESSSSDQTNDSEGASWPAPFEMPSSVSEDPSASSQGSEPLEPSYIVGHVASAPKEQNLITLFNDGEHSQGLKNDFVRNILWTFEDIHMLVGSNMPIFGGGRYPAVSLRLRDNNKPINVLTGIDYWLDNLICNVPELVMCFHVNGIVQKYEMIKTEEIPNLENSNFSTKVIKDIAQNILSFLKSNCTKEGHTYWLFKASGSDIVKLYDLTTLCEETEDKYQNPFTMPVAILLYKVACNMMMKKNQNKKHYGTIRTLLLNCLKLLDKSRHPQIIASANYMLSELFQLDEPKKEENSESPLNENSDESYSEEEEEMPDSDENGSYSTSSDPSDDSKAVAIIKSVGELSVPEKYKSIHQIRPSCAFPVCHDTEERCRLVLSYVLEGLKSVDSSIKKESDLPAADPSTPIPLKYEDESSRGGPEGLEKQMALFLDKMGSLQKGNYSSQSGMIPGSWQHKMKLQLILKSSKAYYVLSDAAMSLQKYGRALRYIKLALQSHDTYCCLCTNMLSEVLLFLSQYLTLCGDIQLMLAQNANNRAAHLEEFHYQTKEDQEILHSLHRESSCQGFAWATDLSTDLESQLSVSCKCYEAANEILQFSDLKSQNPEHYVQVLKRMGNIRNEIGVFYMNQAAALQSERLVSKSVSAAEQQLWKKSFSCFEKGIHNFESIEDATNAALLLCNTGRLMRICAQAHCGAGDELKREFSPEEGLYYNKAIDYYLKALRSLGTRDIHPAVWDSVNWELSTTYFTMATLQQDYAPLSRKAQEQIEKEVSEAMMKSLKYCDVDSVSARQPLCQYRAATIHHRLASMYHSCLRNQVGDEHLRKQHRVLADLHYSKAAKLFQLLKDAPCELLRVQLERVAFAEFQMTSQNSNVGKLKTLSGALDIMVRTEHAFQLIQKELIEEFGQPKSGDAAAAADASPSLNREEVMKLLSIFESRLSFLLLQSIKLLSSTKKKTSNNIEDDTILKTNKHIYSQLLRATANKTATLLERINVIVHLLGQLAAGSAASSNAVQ
UniProt Q6P1R4: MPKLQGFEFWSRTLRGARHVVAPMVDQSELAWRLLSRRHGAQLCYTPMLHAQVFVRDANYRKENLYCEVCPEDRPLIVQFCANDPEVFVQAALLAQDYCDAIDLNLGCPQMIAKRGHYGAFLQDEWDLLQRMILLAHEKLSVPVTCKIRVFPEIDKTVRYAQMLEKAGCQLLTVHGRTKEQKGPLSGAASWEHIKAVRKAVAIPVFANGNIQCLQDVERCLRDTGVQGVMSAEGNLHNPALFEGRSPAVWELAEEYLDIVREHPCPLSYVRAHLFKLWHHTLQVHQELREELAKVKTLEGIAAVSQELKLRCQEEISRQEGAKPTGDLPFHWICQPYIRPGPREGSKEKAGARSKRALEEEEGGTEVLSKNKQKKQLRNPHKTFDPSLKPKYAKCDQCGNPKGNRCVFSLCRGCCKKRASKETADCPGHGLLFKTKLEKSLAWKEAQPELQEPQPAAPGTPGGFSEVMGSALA
UniProt Q66K89: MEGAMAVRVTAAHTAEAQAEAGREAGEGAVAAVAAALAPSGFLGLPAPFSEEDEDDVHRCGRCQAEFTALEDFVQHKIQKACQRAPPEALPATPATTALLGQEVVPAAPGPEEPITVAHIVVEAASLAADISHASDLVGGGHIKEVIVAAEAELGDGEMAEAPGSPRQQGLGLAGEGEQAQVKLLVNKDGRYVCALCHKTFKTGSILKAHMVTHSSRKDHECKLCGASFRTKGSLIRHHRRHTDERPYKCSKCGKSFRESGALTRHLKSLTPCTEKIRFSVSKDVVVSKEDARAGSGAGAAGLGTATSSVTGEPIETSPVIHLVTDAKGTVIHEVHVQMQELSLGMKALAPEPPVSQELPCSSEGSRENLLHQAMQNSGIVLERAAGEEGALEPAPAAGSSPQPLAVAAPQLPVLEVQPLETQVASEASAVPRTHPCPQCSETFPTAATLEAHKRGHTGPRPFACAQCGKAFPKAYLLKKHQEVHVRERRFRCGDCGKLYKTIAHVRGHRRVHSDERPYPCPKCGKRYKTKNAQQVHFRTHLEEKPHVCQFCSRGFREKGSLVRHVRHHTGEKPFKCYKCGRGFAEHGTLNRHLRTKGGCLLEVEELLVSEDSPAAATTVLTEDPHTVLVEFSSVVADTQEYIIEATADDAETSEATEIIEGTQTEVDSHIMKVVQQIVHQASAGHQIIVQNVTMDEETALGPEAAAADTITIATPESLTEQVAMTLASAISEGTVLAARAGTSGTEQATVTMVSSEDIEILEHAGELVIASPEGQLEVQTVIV

compound: CC(=O)c1cnc2ccc(-c3cc(Cl)c(O)c(Cl)c3)nc2c1N[C@H]1CC[C@H](CN(C)C)CC1; experiment: log2 fold change, soluble protein after heating vs DMSO (PISA); higher = thermal stabilisation; K562 lysate, 10 uM; active = over 0.2 and 3.5 SD of the protein, either way, in both replicates (recomputed)
Outline: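 Pellets of K562 cells were dounce-homogenised in PBS pH 7.4 with 1 mM MgCl2, and the crude extract was held at 1 mg/mL protein for a 30 min treatment with 10 μM compound. Aliquots were heated for 3 min over 48°C-58°C and pooled before NP-40 was added to 0.5% at 4°C. The supernatant from 21,000xg for 90 min was quantified by TMTpro 16plex LC-MS/MS with channel sums equalised. Values are reported from duplicates as log-two fold change in thermal stability relative to solvent controls.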

Question: With EEF1D isoform 2 (UniProt P29692) as the target, how does the log2 fold change read?
Answer: The log2 fold change was inactive: -0.005.

Question: How did the log2 fold change turn out when DSN1 (UniProt Q9H410) was run?
Answer: The log2 fold change was inactive: -0.023.

Question: With EHBP1L1 (UniProt Q8N3D4) as the target, how does the log2 fold change read?
Answer: The log2 fold change was inactive: 0.041.

Question: How did the log2 fold change turn out when EBNA1BP2 (UniProt Q99848) was run?
Answer: Its log2 fold change is inactive: -0.011.

Question: For EAPP (UniProt Q56P03), which log2 fold change is on record?
Answer: The log2 fold change was inactive: 0.025.

Question: With DSTN (UniProt P60981) as the target, how does the log2 fold change read?
Answer: Its log2 fold change is inactive: -0.013.

Question: How did the log2 fold change turn out when EIF1AD (UniProt Q8N9N8) was run?
Answer: The log2 fold change was inactive: 0.022.

Question: Which log2 fold change does the source give for EHD1 (UniProt Q9H4M9) here?
Answer: The log2 fold change was inactive: -0.001.

Question: How did the log2 fold change turn out when EEF1G isoform 2 (UniProt P26641) was run?
Answer: Its log2 fold change is inactive: 0.009.

Question: ECT2 (UniProt Q9H8V3) was tested. Which log2 fold change did it give?
Answer: The log2 fold change was inactive: -0.058.

Question: With EHBP1 isoform 2 (UniProt Q8NDI1) as the target, how does the log2 fold change read?
Answer: The log2 fold change was inactive: -0.021.

Question: Which log2 fold change does the source give for DYNLT1 (UniProt P63172) here?
Answer: The log2 fold change was inactive: 0.041.

Question: How did the log2 fold change turn out when DUSP3 (UniProt P51452) was run?
Answer: Its log2 fold change is inactive: -0.027.

Question: Which log2 fold change does the source give for EEF1A1, A0A087WVQ9 here?
Answer: Its log2 fold change is inactive: 0.019.

Question: DPH5 isoform 5 (UniProt Q9H2P9) was tested. Which log2 fold change did it give?
Answer: The log2 fold change was inactive: -0.027.

Question: How did the log2 fold change turn out when DUT (UniProt P33316) was run?
Answer: The log2 fold change was inactive: 0.002.

Question: For EEF1B2 (UniProt P24534), which log2 fold change is on record?
Answer: Its log2 fold change is inactive: -0.001.

Question: With DYNLL2 (UniProt Q96FJ2) as the target, how does the log2 fold change read?
Answer: Its log2 fold change is inactive: 0.006.

Question: With EDRF1 (UniProt Q3B7T1) as the target, how does the log2 fold change read?
Answer: Its log2 fold change is inactive: 0.026.

Question: With DUS1L (UniProt Q6P1R4) as the target, how does the log2 fold change read?
Answer: Its log2 fold change is inactive: 0.027.

Question: For E4F1 (UniProt Q66K89), which log2 fold change is on record?
Answer: The log2 fold change was inactive: -0.001.

Question: How did the log2 fold change turn out when DPF2 (UniProt Q92785) was run?
Answer: The log2 fold change was inactive: -0.064.

Question: DPH2 (UniProt Q9BQC3) was tested. Which log2 fold change did it give?
Answer: Its log2 fold change is inactive: -0.01.
